Test results as given in the supplement of paper PMC11732987, “Enantioselective OTUD7B fragment discovery through chemoproteomics screening and high-throughput optimisation” (Communications Chemistry, 2025).
The other results are listed elsewhere or left out. The data scatter; read single values as rough.

By UniProt entry, the sequences of proteins in these tests, tags left out. Where a name states a change or a piece, a line headed by the entry shows the natural chain unless it says otherwise. Residues count along the entry.
UniProt Q5T7W7: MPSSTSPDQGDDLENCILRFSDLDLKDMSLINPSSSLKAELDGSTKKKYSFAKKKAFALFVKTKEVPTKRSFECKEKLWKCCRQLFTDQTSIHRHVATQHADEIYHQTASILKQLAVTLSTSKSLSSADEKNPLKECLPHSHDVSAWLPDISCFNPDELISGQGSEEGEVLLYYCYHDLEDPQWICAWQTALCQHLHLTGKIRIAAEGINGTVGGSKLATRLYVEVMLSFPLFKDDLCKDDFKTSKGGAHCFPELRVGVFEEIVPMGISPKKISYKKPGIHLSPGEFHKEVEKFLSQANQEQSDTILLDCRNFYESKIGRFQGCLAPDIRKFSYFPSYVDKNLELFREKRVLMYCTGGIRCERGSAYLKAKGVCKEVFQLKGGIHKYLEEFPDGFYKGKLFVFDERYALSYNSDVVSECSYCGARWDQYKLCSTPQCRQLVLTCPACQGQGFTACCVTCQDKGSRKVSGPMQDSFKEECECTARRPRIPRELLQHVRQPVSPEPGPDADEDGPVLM
UniProt Q7Z2T5, 303-324: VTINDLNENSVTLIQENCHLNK
UniProt Q8IZ69, 267-286: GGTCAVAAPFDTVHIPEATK
UniProt O95155, 141-164: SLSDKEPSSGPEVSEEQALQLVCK
UniProt Q9Y4A5, whole entry, looked up: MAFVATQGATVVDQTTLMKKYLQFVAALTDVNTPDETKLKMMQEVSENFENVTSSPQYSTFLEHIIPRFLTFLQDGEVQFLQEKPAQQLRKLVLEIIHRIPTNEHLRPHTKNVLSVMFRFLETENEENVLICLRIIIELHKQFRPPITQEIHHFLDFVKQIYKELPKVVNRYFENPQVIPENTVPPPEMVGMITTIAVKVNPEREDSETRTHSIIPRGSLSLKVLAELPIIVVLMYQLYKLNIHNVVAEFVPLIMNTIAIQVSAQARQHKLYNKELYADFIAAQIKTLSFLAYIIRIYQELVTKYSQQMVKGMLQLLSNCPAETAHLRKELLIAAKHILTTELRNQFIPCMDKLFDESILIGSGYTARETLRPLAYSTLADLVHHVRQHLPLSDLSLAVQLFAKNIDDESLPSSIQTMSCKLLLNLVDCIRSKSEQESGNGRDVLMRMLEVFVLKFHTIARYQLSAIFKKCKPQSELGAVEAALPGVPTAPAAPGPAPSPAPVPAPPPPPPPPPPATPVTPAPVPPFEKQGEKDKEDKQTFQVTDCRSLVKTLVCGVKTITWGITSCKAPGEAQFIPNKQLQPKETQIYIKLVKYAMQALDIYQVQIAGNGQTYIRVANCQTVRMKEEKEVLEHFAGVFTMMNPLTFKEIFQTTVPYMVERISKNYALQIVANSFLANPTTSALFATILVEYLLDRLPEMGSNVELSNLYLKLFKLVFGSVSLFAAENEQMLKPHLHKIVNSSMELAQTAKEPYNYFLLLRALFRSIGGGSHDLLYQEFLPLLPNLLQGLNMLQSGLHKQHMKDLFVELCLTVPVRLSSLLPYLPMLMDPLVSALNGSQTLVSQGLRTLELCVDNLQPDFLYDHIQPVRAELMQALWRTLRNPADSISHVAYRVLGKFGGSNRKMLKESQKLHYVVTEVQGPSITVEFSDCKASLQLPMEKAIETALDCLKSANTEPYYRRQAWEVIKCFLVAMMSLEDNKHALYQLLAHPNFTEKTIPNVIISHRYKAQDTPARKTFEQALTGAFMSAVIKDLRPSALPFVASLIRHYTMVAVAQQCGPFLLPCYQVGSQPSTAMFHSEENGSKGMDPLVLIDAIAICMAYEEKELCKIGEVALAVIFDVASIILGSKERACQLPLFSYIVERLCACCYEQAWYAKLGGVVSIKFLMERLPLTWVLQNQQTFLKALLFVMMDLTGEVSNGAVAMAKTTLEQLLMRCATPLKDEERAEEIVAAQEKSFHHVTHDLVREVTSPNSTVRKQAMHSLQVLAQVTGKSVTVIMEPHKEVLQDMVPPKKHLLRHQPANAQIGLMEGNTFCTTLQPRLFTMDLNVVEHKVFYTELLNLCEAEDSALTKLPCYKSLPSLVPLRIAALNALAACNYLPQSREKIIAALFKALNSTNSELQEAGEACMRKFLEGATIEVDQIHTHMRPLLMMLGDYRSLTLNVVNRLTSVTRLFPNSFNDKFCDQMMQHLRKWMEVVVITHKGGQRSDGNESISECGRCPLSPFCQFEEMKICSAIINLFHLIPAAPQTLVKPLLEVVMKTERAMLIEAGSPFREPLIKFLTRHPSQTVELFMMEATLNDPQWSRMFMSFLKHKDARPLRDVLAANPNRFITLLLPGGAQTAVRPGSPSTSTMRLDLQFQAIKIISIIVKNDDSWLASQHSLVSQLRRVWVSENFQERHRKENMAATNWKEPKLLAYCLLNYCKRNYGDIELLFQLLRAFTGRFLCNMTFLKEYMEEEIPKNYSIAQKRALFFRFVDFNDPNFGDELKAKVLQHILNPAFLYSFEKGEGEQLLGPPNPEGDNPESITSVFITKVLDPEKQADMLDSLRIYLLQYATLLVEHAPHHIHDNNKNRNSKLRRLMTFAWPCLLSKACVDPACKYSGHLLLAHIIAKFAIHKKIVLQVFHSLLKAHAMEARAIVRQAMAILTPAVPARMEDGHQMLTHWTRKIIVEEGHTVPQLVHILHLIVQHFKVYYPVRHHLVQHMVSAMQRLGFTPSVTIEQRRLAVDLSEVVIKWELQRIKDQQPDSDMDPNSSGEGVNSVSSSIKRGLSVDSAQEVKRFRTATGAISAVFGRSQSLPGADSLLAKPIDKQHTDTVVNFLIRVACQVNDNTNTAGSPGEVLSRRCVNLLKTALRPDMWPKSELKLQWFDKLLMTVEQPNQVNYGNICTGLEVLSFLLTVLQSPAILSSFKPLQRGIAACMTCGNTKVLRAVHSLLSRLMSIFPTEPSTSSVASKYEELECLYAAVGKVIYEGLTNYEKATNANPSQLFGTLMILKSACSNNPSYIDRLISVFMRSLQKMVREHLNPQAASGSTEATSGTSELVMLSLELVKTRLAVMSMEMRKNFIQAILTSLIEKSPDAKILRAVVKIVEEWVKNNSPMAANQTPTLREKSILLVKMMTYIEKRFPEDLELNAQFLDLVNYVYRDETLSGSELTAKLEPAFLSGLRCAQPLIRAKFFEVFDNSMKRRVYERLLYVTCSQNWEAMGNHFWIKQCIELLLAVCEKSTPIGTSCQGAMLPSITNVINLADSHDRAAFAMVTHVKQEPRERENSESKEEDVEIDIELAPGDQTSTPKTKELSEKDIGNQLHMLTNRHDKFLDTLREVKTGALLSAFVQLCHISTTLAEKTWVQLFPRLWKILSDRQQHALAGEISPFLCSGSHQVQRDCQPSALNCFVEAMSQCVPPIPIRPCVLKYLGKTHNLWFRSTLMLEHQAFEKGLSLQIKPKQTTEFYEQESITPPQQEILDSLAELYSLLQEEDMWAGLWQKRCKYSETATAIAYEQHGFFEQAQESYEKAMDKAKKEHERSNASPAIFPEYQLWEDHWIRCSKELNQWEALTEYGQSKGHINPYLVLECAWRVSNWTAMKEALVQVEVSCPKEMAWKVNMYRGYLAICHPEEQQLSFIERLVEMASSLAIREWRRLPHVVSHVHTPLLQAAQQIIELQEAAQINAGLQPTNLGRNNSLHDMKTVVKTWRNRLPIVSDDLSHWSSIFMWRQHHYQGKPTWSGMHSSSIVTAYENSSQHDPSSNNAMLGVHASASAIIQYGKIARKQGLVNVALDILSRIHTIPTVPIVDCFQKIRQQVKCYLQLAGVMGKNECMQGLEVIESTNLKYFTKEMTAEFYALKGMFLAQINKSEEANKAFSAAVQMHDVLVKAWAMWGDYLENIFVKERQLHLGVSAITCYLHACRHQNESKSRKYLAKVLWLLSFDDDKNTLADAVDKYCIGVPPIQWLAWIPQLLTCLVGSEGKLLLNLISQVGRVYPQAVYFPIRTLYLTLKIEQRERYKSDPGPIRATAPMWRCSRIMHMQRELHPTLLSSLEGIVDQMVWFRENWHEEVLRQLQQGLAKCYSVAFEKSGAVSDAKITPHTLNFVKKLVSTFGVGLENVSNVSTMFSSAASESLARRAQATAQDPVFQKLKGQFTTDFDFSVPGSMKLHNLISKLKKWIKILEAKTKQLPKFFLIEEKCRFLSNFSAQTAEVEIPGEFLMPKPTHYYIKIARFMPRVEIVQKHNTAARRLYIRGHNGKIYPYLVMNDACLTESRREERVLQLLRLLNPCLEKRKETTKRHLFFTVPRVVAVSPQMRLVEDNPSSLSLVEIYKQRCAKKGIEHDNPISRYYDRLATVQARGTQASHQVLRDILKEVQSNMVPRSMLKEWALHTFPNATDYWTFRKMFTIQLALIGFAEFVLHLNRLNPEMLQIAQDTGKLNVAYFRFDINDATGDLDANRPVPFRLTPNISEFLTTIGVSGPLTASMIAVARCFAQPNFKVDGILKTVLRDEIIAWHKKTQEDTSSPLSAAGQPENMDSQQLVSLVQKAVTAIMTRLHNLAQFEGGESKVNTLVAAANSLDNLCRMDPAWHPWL
UniProt Q969E8: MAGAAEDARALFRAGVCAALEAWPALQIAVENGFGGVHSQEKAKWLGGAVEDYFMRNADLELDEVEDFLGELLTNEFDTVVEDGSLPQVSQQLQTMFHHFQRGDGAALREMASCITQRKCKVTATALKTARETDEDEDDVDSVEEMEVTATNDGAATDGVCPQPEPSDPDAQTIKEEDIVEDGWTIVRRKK
UniProt Q9NUP7: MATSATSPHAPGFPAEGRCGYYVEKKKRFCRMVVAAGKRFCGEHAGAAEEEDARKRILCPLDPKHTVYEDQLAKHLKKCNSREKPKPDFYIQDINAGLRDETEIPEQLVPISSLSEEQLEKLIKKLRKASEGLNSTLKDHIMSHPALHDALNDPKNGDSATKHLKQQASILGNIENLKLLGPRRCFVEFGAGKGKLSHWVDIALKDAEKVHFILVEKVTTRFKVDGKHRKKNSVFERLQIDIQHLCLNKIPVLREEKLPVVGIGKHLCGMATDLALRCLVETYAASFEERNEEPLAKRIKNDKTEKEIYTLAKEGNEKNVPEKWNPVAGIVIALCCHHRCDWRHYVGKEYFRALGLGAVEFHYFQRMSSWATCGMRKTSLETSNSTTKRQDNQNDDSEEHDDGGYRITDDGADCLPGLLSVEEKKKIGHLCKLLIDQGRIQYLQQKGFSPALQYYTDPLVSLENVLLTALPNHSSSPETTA
UniProt Q9UHF7: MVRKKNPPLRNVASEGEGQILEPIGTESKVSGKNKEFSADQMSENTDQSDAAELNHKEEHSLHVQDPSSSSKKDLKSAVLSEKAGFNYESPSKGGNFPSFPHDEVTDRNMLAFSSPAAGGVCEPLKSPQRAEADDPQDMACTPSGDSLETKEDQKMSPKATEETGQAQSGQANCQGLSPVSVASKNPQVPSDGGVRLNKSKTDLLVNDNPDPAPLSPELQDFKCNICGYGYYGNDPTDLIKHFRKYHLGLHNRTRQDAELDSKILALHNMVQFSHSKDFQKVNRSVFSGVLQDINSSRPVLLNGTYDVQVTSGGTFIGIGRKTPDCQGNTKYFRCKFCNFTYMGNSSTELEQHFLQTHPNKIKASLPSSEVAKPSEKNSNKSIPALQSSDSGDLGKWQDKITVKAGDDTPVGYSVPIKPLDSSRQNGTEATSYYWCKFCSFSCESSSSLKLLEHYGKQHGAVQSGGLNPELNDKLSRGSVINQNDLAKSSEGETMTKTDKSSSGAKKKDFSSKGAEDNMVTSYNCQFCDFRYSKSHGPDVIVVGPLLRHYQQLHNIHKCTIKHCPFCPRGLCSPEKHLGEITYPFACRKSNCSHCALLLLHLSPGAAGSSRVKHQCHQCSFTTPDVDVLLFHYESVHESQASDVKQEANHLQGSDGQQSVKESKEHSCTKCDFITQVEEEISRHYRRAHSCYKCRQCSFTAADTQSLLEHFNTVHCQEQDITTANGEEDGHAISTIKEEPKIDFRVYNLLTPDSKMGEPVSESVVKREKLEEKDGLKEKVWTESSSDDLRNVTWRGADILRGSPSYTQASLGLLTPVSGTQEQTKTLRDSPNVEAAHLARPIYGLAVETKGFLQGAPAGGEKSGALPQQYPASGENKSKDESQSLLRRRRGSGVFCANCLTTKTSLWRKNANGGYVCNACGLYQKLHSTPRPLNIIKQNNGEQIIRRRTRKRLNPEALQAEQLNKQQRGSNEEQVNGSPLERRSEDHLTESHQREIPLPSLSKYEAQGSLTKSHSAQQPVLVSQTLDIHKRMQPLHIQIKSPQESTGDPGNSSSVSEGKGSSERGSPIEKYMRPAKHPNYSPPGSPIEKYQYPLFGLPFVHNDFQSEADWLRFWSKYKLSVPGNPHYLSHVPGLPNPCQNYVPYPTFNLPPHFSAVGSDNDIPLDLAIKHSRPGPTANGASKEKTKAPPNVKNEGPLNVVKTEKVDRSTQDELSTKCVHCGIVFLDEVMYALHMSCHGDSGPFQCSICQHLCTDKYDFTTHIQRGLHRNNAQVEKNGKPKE

compound: ClCC(=O)N[C@@H]1CCCc2ccccc12; assay: log2 mean competition ratio of IA-DTB cysteine labelling (DMSO/compound) (log2 ratio); higher = stronger cysteine engagement by compound; settings: 200 µM; treatment time: 4 h; cell line lysate: HEK293T
Procedure: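 IA-DTB competitive cysteine chemoproteomics in HEK293T RIPA lysate. Lysates were treated with compound 29 or 30 at 50 or 200 µM for 4 h, then IA-DTB (500 µM, 1 h), trypsin-digested, NeutrAvidin-enriched and analysed by diaPASEF. Competition ratio = intensity DMSO / intensity compound (n=4 treated, n=64 DMSO); binding: mean log2 CR ≥ 1 and p ≤ 0.05 plus QC filters. Target is the cysteine site.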

Row | Target | log2 mean competition ratio
1 | TSTD2 C324 (UniProt Q5T7W7) | 0.223
2 | TUBGCP6 C598 (UniProt Q96RT7) | 0.329
3 | UBA6 C17 | -0.285
4 | TRMT1L C320 (UniProt Q7Z2T5) | -0.0676
5 | TTC17 C114 (UniProt Q96AE7) | -0.0719
6 | TSNAX C257 (UniProt Q99598) | 0.0652
7 | TRMT2A C270 (UniProt Q8IZ69) | 0.0046
8 | TSEN54 C338 (UniProt Q7Z6J9) | 0.299
9 | TTC3 C109 (UniProt P53804) | 0.515
10 | TTC21B C914 (UniProt Q7Z4L5) | 0.0141
11 | TRPT1 C147 (UniProt Q86TN4) | 0.142
12 | TUT4 C20 (UniProt Q5TAX3) | -0.201
13 | TRMU C222 (UniProt O75648) | 0.00948
14 | UBN1 C467 (UniProt Q9NPG3) | 0.265
15 | UBE4B C163 (UniProt O95155) | -0.249
16 | TRMT2A C486 (UniProt Q8IZ69) | 0.169
17 | UBE2O C370 | -0.0266
18 | UBE2Q1 C157 (UniProt Q7Z7E8) | -0.162
19 | UBN1 C765 (UniProt Q9NPG3) | -0.0557

Row | Target | log2 mean competition ratio
20 | TYW1B;TYW1 C169;(C215) | 0.264
21 | TSFM C64 (UniProt P43897) | -0.221
22 | UBR4 C3414 (UniProt Q5T4S7) | -0.113
23 | TRRAP C620 (UniProt Q9Y4A5) | -0.143
24 | TSR2 C114 (UniProt Q969E8) | 0.014
25 | TXLNG C480 (UniProt Q9NUQ3) | -0.244
26 | UBE4B C829 (UniProt O95155) | -0.358
27 | TRRAP C3849 (UniProt Q9Y4A5) | 0.311
28 | UBR4 C1900 (UniProt Q5T4S7) | 0.254
29 | TRMT13 C59 (UniProt Q9NUP7) | -0.0569
30 | TTC33 C55 (UniProt Q6PID6) | -0.133
31 | TRRAP C2876 (UniProt Q9Y4A5) | -0.103
32 | TUBA3C;TUBA3D C347;(C347) | -0.101
33 | TSEN54 C58 (UniProt Q7Z6J9) | -0.0225
34 | TRRAP C2279 (UniProt Q9Y4A5) | -0.172
35 | TRUB1 C269 (UniProt Q8WWH5) | -0.147
36 | TRPS1 C587 (UniProt Q9UHF7) | 0.305
37 | TRMT1L C730 (UniProt Q7Z2T5) | 0.153
38 | UACA C125 (UniProt Q9BZF9) | -0.178

Entries 23–24 from above:
Row | Target | log2 mean competition ratio
23 | TRRAP C620 (UniProt Q9Y4A5) | -0.143
24 | TSR2 C114 (UniProt Q969E8) | 0.014
